# The other results are listed elsewhere or left out. Shown are side measurements of this screen, not its main read-out; they come without a call. The list favours compounds with an active or inconclusive main result. The note in brackets gives the kind of curve behind each potency; many fits are weak.
# Assay: qHTS Assay for Lipid Storage Modulators in Drosophila S3 Cells;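 on cell number change: cells counted by Cell Tracker Red CMTPX staining in the red channel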
# Details: BODIPY lipid droplet fluorescence, 18-24 h; for cell number change: measured here: cell count max response, cells fed with added oleic acid
# Outline: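 Drosophila S3 cells got compounds at several concentrations plus oleic acid (400 uM solution). Laser-scanning cytometry with 488 nm excitation read lipid droplets at 500-530 nm and cells at 575-640 nm. Percent activity was relative to 20 uM Triacsin C.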
# [1] = measured here: lipid fluorescence (Fed channel) AC50, cells fed with added oleic acid
# [2] = measured here: cell number channel AC50, cells fed with added oleic acid
Compound,cell number change [%],AC50 [1],AC50 [2]
CCOC(=O)CSc1nc(-c2ccccc2)nc2ccc(F)cc12,8.77,,
CC(C)Nc1nc(-c2cccnc2)nc(-c2ccccc2)c1C#N,15.6,"4.61 µM [falling, partial curve, poor fit]",
O=[N+]([O-])c1cccc(-c2ccc(/C=N/NC(=S)NCc3ccco3)o2)c1,11,,"0.58 µM [rising, full curve, poor fit]"
COc1ccc(-c2oc(/N=C/N3CCCC3)c(C#N)c2-c2ccc(OC)cc2)cc1,88.6,"1.46 µM [rising, partial curve]","20.6 µM [rising, partial curve, poor fit]"
Cc1cc(C)n(-c2cc(C(=O)O)cc(C(=O)O)c2)n1,23.4,"29.1 µM [rising, single point]",
CCCN1Cc2cccc(C(=O)NC(CC(=O)OCC)c3ccc(C)cc3)c2C1=O (stereo not given),-41.7,"0.731 µM [falling, full curve]","0.517 µM [falling, partial curve, poor fit]"
CCCCNC(=O)Cn1cnc2sc(C)c(S(=O)(=O)N3CCN(c4ccccc4OC)CC3)c2c1=O,17.4,,
COc1cccc(/C=N/NC(=O)C(=O)NCc2cccnc2)c1OC,10.1,"0.103 µM [falling, full curve, poor fit]",
O=C(/C=C/c1cccc([N+](=O)[O-])c1)N1CCN(Cc2ccccc2)CC1,9.45,"29.1 µM [falling, single point]",
COc1ccc(OC)c(S(=O)(=O)N2CCC(C(=O)NC(C)c3ccccc3)CC2)c1 (stereo not given),-3.47,"2.06 µM [rising, single point]",
CN(C(=O)CN1C(=O)C2C3CC(C(Br)C3Br)C2C1=O)C1CCCCC1 (stereo not given),1.32,"5.62 µM [falling, single point]",
COc1ccc(NC(=O)c2ccc(COCC(F)(F)C(F)F)cc2)cc1OC,-7.65,"18.4 µM [falling, single point]",
C=CCOn1c(=O)c(-c2ccccc2)[n+]([O-])c2ccccc21,24.9,"1.3 µM [rising, full curve, poor fit]",
CC(C)(C)CC(C)(C)NC(=S)Nc1ccc(S(=O)(=O)N2CCOCC2)cc1,8.19,,
Cn1c(C(=O)OC(C(=O)NC2CCCCC2)c2ccncc2)cc2sccc21 (stereo not given),30,,"2.59 µM [rising, full curve, poor fit]"
O=C(COC(=O)c1ccccc1Br)Nc1ccc2[nH]c(=O)[nH]c2c1,49.5,,"20.6 µM [rising, single point]"
COc1ccc(N2CCN(C(=O)C3CCN(C(=O)c4ccc([N+](=O)[O-])cc4)CC3)CC2)cc1,-26.2,"2.91 µM [falling, single point]",
COCCNC(=O)COc1cc(=O)n(C)c2ccccc12,18.4,"8.2 µM [rising, partial curve, poor fit]",
O=C(N/N=C/c1cc(Br)c(O)c(Br)c1O)c1cccnc1,-2.78,"3.26 µM [rising, partial curve, poor fit]",
CCc1ccccc1NC(=O)CNC(=O)CNC(=O)Cc1ccccc1,151,"3.66 µM [falling, single point]","3.66 µM [falling, single point]"
Cc1cc(C(=O)NNC(=O)CCCCC(=O)NNC(=O)c2cc(C)[nH]n2)n[nH]1,55.2,"18.4 µM [rising, single point]","9.2 µM [rising, partial curve]"
O=S(=O)(c1ccc(Cl)cc1)c1nc(-c2ccccc2F)oc1NCCCN1CCOCC1,37.4,"4.11 µM [rising, full curve]","2.31 µM [rising, full curve, poor fit]"
CC1=CCC(COC(=O)Nc2ccccc2)CC1 (stereo not given),-32.6,"20.6 µM [falling, single point]","18.4 µM [falling, single point]"
COCCn1cnnc1SCC(=O)Nc1cccc(S(=O)(=O)N2CCCCC2)c1,36,"29.1 µM [rising, partial curve, poor fit]","32.6 µM [rising, single point]"
CCCCN(C(=O)CSc1nnc(-c2ccc(Cl)cc2)o1)c1c(N)n(CC(C)C)c(=O)[nH]c1=O,-29.5,"6.51 µM [falling, single point]",
COc1cc(C(=O)Nc2sc(C(=O)N3CCOCC3)c(C)c2C#N)cc(OC)c1OC,-3.41,"6.51 µM [rising, single point]",
COc1cc(/C=N/OCC(=O)Nc2cc(C)cc(C)c2)ccc1OCc1ccc(Cl)cc1,,,"0.13 µM [falling, full curve, poor fit]"
COc1cccc(N2CCN(S(=O)(=O)c3ccc(-c4coc(C)n4)cc3)CC2)c1,-24.9,"29.1 µM [falling, single point]",

# Another view of part of the listing above:
Compound	cell number change [%]	AC50 [1]	AC50 [2]
O=C(/C=C/c1cccc([N+](=O)[O-])c1)N1CCN(Cc2ccccc2)CC1	9.45	29.1 µM [falling, single point]	
COc1ccc(OC)c(S(=O)(=O)N2CCC(C(=O)NC(C)c3ccccc3)CC2)c1 (stereo not given)	-3.47	2.06 µM [rising, single point]	

# More records:

Compound,cell number change [%],AC50 [1],AC50 [2]
CCOc1cc(/C=N/N=C(N)N)ccc1OCc1ccc(Cl)cc1,-89,"23.1 µM [falling, single point]","20.6 µM [falling, single point]"
Cc1cccn2c(NCc3ccc4c(c3)OCO4)c(-c3ccc(O)cc3)nc12,69.7,"18.4 µM [rising, single point]","0.411 µM [rising, full curve]"
CCOC(=O)c1ccc(N/C=C\C(=O)c2cccc(OC)c2)cc1,-0.988,"16.4 µM [rising, single point]",
COc1ccc(Cl)cc1C(=O)NCCS(=O)(=O)N1CCN(c2ccccc2F)CC1,,"29.1 µM [falling, single point]",
O=C(NC(=S)Nc1sc2c(c1C(=O)O)CCCC2)c1ccccc1,,"29.1 µM [rising, single point]",
C=CCn1c(O)c(N=NC(=S)Nc2ccccc2F)c2cc(S(=O)(=O)N3CCOCC3)ccc21,22.7,"0.0651 µM [rising, full curve, poor fit]","1.64 µM [rising, full curve, poor fit]"
COC(=O)c1ccccc1NC(=S)N1CCC(N2CCCCC2)CC1,-19,,
Cc1ccc2c(c1)c1ncnc(N3CCOCC3)c1n2C,-6.55,"2.59 µM [rising, full curve, poor fit]",
CCOC(=O)C1C(=O)NC(N2CCN(c3ccccc3)CC2)=NC1c1ccco1 (stereo not given),70.3,"29.1 µM [rising, single point]",
COc1ccc(C(=O)N2CC3(C)C4CCC3(C)C2(C#N)C4)cc1OC (stereo not given),47.8,"20.6 µM [rising, partial curve, poor fit]","9.2 µM [rising, partial curve, poor fit]"
O=C(Nc1c2c(nn1-c1cccc(Cl)c1)CS(=O)C2)c1ccc2c(c1)OCO2 (stereo not given),9.91,"14.6 µM [rising, partial curve, poor fit]",
COc1ccc(/C(C)=N/NC(=O)c2nc(C)cc(C)n2)cc1,48.9,,"8.2 µM [rising, single point]"
CCOC(=O)NC(=O)C(=CNc1cccc(OC)c1)C(=O)NC(=O)OCC,0.767,"0.082 µM [rising, full curve, poor fit]",
COC(=O)N/N=C1\CCCc2ccccc21,9.56,"20.6 µM [rising, single point]",
CC(C)Cc1nc2sc3c(NCc4ccco4)ncnc3c2c2c1COC(C)(C)C2,,"0.58 µM [rising, single point]","0.731 µM [rising, single point]"
COc1ccc(-n2ccnc(SCC(=O)NC3CCCC3)c2=O)cc1,24.2,"29.1 µM [rising, single point]",
CCOC(=O)C1C(=O)NC(c2ccccc2)=NC1c1ccc(F)cc1 (stereo not given),14.4,"14.6 µM [rising, single point]",
COc1cccc(-c2coc3cc4oc(=O)c(CC(=O)O)c(C)c4cc23)c1,-8.11,,"0.517 µM [rising, single point]"
COc1ccc(CNC(=O)CN(C(=O)c2csnn2)c2ccc(F)cc2)cc1,,"29.1 µM [rising, single point]",
CC(C)(C)C1CCc2onc(C(=O)N3CCOCC3)c2C1 (stereo not given),0.135,,
Cc1cc(/C=C(\C#N)C(=O)OCC#N)c(C)n1CC(C)C,93.5,"23.1 µM [rising, single point]","20.6 µM [rising, partial curve]"
COc1ccc(NC(=O)Cn2c3ccccc3c3nc4n(c(=O)c32)CCS4)cc1,-4.55,"29.1 µM [falling, single point]",
CCOc1cccc2cc(C(C)=O)oc12,50.7,"6.51 µM [rising, full curve, poor fit]","0.00461 µM [rising, full curve, poor fit]"
CC(=O)c1ccc(N2C(=O)NC3(CCCCC3)C2=O)cc1,-21.6,"2.31 µM [falling, full curve]",
CC(C)(C)c1ccc(SCCc2ccccn2)cc1,-27,"29.1 µM [falling, single point]",
COCCN(C(=O)CSc1ncc(C(F)(F)F)cc1Cl)c1c(N)n(Cc2ccccc2)c(=O)[nH]c1=O,-63.1,"5.17 µM [falling, partial curve]","6.51 µM [falling, partial curve]"
CCn1c(O)c(N=Nc2ccc3ccccc3n2)c2ccccc21,18.6,"29.1 µM [rising, single point]",
